Test [1] deals with T1, NRP2-9xMyc (NAP1-RELATED PROTEIN 2, C-terminally 9xMyc-tagged) (Arabidopsis) (UniProt Q8LC68).
T1 sequence: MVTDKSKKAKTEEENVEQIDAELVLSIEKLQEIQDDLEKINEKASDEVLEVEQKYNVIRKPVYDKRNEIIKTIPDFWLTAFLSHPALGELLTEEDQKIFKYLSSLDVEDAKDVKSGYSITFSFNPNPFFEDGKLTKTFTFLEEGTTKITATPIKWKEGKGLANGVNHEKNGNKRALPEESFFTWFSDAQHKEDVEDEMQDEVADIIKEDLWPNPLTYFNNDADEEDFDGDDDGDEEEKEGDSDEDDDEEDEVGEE
The experiment in a line: co-IP; α-Myc immunoprecipitation of Myc-tagged NRP1 or NRP2 from plant extracts; H2A.Z forms detected by western blot.

The target in test [2] is T2, 9xMyc-NRP1 (NAP1-RELATED PROTEIN 1, N-terminally 9xMyc-tagged) (Arabidopsis) (UniProt Q9CA59).
T2 sequence: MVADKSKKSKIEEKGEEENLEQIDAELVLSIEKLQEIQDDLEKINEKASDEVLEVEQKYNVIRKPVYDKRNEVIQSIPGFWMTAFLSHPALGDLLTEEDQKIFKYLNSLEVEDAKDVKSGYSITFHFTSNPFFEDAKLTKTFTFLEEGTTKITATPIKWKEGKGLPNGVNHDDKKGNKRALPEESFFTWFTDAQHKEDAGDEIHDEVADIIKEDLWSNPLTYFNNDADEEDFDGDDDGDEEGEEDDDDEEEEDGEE
The test is described as above.

Test [3] addresses Histone variant H2A.Z (unmodified), endogenous (Arabidopsis (endogenous in Columbia-0 background plants)). Briefly: co-IP; anti-H2A or anti-H2A.Z polyclonal antibody coupled to Dynabeads; lysate of 14 days old seedlings of tagged NRP lines in IP buffer (50 mM Tris pH 7.6, 150 mM NaCl, 5 mM MgCl2, 10% glycerol, 0.1% NP-40), overnight at 4 °C; tagged NRP detected by western blot; empty beads as negative control. (A western blot detects proteins with antibodies after separation by electrophoresis.)

Test [4] has as its target Canonical histone H2A, endogenous (Arabidopsis (endogenous in Columbia-0 background plants)). Described as above.

Results are given in words; binding and its absence hold for the method and conditions named. Binding seen in cells or lysates may run through a third protein. Binding can be weak; no strength is given. Tags and fused reporters may be left off the sequences shown.

Turning to “Histone variant H2A.Z (unmodified), endogenous”, the binding result in test [1] and in test [2] was “binds” in each case.

B1: 9xMyc-NRP1 (NAP1-RELATED PROTEIN 1, N-terminally 9xMyc-tagged) (protein, UniProt Q9CA59 1-256)
chain: MVADKSKKSKIEEKGEEENLEQIDAELVLSIEKLQEIQDDLEKINEKASDEVLEVEQKYNVIRKPVYDKRNEVIQSIPGFWMTAFLSHPALGDLLTEEDQKIFKYLNSLEVEDAKDVKSGYSITFHFTSNPFFEDAKLTKTFTFLEEGTTKITATPIKWKEGKGLPNGVNHDDKKGNKRALPEESFFTWFTDAQHKEDAGDEIHDEVADIIKEDLWSNPLTYFNNDADEEDFDGDDDGDEEGEEDDDDEEEEDGEE
For B1, the binding result in test [3] and in test [4] was “binds” in each case.

B2: NRP2-9xMyc (NAP1-RELATED PROTEIN 2, C-terminally 9xMyc-tagged) (protein, UniProt Q8LC68 1-255)
chain: MVTDKSKKAKTEEENVEQIDAELVLSIEKLQEIQDDLEKINEKASDEVLEVEQKYNVIRKPVYDKRNEIIKTIPDFWLTAFLSHPALGELLTEEDQKIFKYLSSLDVEDAKDVKSGYSITFSFNPNPFFEDGKLTKTFTFLEEGTTKITATPIKWKEGKGLANGVNHEKNGNKRALPEESFFTWFSDAQHKEDVEDEMQDEVADIIKEDLWPNPLTYFNNDADEEDFDGDDDGDEEEKEGDSDEDDDEEDEVGEE
Consider B2, for which the binding entry in test [3] and in test [4] was “binds” throughout.

(Values after PMC7280298.)
